# Reference: the supplement of paper PMC12067093, “Discovery and optimisation of a covalent ligand for TRIM25 and its application to targeted protein ubiquitination” (Chemical Science, 2025)
# Chains of the proteins cited; added tags and fusions are not shown. Lines headed by an entry give the natural chain unless they say otherwise; changes in a name come on top.
# UniProt Q14CX7, whole entry, looked up: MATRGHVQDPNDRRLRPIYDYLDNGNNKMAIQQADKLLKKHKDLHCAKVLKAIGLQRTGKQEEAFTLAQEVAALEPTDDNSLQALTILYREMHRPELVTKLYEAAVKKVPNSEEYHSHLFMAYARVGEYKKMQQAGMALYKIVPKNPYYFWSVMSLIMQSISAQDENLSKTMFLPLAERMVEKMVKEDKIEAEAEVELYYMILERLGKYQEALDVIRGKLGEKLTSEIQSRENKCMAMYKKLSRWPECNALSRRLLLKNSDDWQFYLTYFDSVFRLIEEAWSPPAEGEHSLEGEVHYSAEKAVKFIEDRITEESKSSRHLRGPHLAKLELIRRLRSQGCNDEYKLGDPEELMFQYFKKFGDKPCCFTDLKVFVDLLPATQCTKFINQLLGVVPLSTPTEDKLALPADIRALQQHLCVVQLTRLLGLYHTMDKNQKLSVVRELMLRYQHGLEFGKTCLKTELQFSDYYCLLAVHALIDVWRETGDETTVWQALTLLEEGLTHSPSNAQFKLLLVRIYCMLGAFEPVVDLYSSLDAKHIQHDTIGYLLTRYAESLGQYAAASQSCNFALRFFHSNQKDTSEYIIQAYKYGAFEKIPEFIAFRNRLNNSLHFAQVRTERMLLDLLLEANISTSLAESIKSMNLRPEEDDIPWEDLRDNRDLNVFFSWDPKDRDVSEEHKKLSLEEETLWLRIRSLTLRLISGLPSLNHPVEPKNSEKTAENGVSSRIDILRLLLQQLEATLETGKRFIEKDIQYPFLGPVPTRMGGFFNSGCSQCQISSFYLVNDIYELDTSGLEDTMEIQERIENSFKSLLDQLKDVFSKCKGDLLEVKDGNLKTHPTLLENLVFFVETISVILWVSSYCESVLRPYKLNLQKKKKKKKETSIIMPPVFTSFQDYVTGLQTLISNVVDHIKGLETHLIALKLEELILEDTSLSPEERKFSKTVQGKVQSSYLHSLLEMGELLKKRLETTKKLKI
# UniProt P52298: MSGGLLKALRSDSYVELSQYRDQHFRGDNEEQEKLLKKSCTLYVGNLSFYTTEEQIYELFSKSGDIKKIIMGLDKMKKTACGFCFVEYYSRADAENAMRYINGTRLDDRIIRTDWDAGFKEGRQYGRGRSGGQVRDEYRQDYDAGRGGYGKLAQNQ
# UniProt O43776: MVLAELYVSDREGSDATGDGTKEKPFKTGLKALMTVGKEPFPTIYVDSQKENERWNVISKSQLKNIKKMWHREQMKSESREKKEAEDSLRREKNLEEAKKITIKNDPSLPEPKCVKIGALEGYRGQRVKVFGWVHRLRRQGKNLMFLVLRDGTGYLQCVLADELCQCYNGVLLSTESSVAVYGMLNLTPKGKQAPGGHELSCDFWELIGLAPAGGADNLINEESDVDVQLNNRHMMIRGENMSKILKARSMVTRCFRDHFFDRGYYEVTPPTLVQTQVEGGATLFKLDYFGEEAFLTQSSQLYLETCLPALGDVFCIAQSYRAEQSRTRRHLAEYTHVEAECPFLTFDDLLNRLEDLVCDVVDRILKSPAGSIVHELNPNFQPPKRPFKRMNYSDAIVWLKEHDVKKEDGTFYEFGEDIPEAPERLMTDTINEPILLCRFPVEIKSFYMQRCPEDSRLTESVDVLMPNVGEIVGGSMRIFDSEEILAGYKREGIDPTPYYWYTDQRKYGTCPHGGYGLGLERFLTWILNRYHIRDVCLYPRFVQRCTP
# UniProt P19878: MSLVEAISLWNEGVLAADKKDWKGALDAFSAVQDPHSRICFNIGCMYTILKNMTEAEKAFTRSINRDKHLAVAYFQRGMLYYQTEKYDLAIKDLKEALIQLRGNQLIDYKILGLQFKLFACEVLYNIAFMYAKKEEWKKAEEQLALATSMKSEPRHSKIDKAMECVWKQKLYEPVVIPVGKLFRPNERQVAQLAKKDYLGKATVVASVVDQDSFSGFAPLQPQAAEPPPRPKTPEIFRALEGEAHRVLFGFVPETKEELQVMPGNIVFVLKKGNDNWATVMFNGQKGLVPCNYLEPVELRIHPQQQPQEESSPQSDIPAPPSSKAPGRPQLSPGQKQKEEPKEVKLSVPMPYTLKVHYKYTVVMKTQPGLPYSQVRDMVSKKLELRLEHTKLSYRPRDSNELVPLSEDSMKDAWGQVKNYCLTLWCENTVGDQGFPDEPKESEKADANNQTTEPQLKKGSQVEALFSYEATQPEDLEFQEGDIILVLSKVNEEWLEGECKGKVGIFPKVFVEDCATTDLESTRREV
# UniProt B0I1T2: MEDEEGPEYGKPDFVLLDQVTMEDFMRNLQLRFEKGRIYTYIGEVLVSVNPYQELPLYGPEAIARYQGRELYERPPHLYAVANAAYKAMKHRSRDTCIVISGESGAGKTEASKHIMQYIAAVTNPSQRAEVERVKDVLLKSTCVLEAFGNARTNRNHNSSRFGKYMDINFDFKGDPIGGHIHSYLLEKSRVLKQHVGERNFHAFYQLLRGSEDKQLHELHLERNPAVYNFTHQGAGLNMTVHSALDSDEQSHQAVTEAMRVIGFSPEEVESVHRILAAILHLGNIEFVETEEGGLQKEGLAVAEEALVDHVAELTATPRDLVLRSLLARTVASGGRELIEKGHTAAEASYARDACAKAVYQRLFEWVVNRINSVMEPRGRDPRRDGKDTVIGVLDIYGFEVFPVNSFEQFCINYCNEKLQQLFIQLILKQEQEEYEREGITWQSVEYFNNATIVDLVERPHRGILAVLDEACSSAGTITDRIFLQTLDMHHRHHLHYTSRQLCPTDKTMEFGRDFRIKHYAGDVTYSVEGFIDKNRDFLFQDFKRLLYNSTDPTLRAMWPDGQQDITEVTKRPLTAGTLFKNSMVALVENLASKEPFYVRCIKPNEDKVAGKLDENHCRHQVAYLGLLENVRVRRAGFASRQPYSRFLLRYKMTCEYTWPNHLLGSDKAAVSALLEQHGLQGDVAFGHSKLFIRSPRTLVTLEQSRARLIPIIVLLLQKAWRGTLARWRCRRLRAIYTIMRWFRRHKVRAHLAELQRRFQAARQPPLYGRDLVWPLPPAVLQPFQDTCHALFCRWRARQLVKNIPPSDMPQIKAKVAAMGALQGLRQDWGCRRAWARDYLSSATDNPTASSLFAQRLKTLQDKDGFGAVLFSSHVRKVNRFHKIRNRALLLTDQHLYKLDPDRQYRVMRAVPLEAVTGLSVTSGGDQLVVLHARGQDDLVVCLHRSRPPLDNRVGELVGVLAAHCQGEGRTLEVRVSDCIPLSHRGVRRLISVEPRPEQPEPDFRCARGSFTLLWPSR
# UniProt Q96RE7: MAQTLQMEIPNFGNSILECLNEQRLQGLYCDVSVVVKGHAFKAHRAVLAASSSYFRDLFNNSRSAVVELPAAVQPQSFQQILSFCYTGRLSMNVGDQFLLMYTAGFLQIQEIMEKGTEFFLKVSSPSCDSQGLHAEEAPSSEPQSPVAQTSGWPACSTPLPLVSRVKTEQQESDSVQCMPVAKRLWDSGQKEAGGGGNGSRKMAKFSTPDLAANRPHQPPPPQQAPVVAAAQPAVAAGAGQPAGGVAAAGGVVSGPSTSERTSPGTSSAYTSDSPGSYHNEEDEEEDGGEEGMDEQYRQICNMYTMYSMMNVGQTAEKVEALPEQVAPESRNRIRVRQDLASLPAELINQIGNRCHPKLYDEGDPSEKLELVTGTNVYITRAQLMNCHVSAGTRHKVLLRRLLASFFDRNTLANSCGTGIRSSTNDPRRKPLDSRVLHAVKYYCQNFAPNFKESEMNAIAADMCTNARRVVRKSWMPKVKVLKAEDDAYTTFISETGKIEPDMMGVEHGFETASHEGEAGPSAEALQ
# UniProt Q15021, whole entry, looked up: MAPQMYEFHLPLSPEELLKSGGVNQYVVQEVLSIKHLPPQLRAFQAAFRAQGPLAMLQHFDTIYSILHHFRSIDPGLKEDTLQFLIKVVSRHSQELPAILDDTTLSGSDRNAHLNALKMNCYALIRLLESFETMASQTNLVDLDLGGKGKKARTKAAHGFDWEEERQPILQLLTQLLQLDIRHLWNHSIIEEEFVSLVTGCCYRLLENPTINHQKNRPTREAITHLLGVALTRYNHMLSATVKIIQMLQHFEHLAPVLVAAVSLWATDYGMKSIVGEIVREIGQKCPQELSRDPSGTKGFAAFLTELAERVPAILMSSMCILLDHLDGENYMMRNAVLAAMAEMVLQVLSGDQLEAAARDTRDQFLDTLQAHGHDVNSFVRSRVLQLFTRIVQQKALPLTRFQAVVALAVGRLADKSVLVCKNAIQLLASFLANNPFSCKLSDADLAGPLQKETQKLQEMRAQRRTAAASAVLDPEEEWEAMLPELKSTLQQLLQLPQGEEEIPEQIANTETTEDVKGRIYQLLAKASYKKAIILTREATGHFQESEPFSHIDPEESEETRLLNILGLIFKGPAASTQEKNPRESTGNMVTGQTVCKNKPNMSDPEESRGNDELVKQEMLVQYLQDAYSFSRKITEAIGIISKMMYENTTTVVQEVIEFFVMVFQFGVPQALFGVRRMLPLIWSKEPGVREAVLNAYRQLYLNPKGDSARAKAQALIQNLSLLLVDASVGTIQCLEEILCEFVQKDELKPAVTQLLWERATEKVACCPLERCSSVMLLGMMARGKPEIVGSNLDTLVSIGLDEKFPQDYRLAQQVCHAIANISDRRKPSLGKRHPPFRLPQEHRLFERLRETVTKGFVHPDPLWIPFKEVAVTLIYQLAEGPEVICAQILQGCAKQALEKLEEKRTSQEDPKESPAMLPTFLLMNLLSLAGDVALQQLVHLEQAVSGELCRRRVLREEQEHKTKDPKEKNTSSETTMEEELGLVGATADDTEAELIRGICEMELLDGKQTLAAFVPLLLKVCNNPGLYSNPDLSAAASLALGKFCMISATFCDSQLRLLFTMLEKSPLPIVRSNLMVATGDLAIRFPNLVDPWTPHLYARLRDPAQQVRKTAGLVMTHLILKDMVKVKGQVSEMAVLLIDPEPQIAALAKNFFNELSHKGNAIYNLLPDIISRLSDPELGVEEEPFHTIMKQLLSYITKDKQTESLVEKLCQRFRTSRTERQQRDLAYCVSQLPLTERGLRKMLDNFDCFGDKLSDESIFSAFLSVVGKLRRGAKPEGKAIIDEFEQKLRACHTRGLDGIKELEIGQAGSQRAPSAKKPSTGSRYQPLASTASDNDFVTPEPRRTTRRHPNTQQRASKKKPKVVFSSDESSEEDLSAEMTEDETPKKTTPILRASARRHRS
# UniProt Q86XI2: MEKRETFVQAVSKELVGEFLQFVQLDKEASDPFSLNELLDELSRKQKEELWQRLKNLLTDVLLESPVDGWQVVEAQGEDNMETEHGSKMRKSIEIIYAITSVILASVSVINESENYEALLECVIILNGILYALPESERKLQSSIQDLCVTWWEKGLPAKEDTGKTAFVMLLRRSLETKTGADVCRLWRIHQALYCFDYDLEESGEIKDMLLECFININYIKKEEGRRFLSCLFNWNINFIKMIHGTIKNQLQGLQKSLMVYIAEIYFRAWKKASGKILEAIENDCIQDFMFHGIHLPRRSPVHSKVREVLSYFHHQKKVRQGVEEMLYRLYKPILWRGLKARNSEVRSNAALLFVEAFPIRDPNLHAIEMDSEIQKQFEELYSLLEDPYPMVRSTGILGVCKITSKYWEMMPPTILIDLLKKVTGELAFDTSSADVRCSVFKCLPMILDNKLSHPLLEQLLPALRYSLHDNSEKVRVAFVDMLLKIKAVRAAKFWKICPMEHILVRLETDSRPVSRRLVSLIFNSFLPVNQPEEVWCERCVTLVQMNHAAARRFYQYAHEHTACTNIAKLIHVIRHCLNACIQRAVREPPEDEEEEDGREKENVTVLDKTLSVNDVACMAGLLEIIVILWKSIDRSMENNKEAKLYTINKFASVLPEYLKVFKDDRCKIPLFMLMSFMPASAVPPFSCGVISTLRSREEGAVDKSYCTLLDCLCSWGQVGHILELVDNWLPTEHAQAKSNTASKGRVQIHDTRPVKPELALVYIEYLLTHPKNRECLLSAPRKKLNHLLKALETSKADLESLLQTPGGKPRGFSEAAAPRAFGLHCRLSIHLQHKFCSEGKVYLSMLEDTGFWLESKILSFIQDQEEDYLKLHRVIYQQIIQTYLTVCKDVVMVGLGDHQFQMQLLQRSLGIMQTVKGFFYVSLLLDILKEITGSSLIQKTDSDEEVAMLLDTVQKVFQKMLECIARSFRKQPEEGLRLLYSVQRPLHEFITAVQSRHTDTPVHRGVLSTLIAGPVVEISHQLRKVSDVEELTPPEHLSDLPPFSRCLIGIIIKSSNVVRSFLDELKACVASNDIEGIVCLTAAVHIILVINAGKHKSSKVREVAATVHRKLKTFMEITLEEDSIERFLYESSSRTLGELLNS
# The other results are listed elsewhere or left out.
# Compound: Cc1cc(ccc1-c1ccccc1)C(=O)N1CCCN(CC1)C(=O)CCl [compound 10]
# Assay: probe-labelled cysteine peptide fold change vs DMSO (competition) (log2 fold change); higher = less target engagement (more negative = stronger competition)
# Conditions: 10 µM; THP-1; incubation time: 4 h
# 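Also: competitive profiling in live THP-1 cells: cysteine peptides tagged with an iodoacetamide desthiobiotin (IA-DTB) probe, intensity after compound treatment relative to DMSO-treated cells.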
row,Target,probe-labelled cysteine peptide fold change
1,NAT10_Q9H0A0_194_FILSLASCK (UniProt Q9H0A0),0.27
2,NAA25_Q14CX7_339_SQGCNDEYK (UniProt Q14CX7),-0.177
3,MYO18A_Q92614_811_GASFEELCHNYTQDR (UniProt Q92614),0.0779
4,MYO1F_O00160_788_CVYVIGR (UniProt O00160),0.0832
5,NCBP2_P52298_84_TACGFCFVEYYSR (UniProt P52298),0.15
6,MYO9A_B2RTY4_1973_TSDCTATK (UniProt B2RTY4),-0.0627
7,NCBP1_Q09161_231_PHPQEEYLDCLWAQIQK (UniProt Q09161),0.118
8,NAA25_Q14CX7_381_VFVDLLPATQCTK (UniProt Q14CX7),-0.214
9,NARS_O43776_438_LMTDTINEPILLCR (UniProt O43776),0.0634
10,NCF2_P19878_514_VFVEDCATTDLESTR (UniProt P19878),-0.00446
11,MYO1G_B0I1T2_942_GQDDLVVCLHR (UniProt B0I1T2),0.00448
12,NACC1_Q96RE7_464_ESEMNAIAADMCTNAR (UniProt Q96RE7),0.0605
13,NCAPD2_Q15021_421_SVLVCK (UniProt Q15021),-0.117
14,NCAPG2_Q86XI2_401_STGILGVCK (UniProt Q86XI2),0.0223
15,NCK1_P16333_340_ETVYCIGQR (UniProt P16333),0.0463
16,MYO1G_B0I1T2_97_DTCIVISGESGAGK (UniProt B0I1T2),-0.00786
17,NCF2_P19878_40+45_ICFNIGCMYTILK (UniProt P19878),-0.00566
18,NCAM1_P13591_829_GPVEAKPECQETETK (UniProt P13591),0.0715
19,NCAPH2_Q6IBW4_309_EREGAPEPASCVK (UniProt Q6IBW4),-0.225
20,NCAPD3_P42695_824_ASAETPAEEQELLTQVCGDVLSTCEHR (UniProt P42695),0.0779
21,NARS_O43776_452_CPEDSR (UniProt O43776),0.0788
22,NCAPD2_Q15021_772_CSSVMLLGMMAR (UniProt Q15021),0.0479
23,NCAPG2_Q86XI2_498_ICPMEHILVR (UniProt Q86XI2),-0.15

# Two entries from above in a different format:
row	Target	probe-labelled cysteine peptide fold change
12	NACC1_Q96RE7_464_ESEMNAIAADMCTNAR (UniProt Q96RE7)	0.0605
13	NCAPD2_Q15021_421_SVLVCK (UniProt Q15021)	-0.117
